The structures appear in SMILES notation.

The nature of series [1]: UPLC-MS gross compound stability in assay buffer. The settings on record: 25 mM sodium phosphate, pH 7.0, 30 °C, no GSH or CoA. On the procedure: Select compounds were incubated up to 24 h for additional stability analyses. Chromatograms and mass spectra were qualitatively analyzed for the formation of new peaks and/or loss of parent peaks.
A further series can be described thus: Absorbance spectra. The series is classed as physicochemical. The settings on record: 25 mM sodium phosphate, pH 7.0. On the procedure:
Selected test compounds were assessed for absorption between 300 and 750 nm. Most compound absorption spectra were obtained at 100, 50, and 10 μM final compound concentrations in ALARM NMR buffer (25 mM sodium phosphate, pH 7.0). Final concentration of DMSO was constant at 2.0% (v/v). Compounds were allowed to incubate at RT in buffer for 10 min in UV-transparent polystyrene 384-well plates. Absorbance spectra were then obtained on a SpectraMax M3 or BMG Labtech CLARIOstar microplate reader at 25 °C. Significant absorbance was defined as molar absorptivity constants greater than 2000 M^−1 cm^−1 at wavelengths greater than 300 nm.

On to `c1cc(SSc2ccns2)sn1` [Compound 2, NU-9056], for which the “UPLC-MS buffer stability counter-screen” value in series [1] is reported as “Grossly stable”. Also, the “Absorption max (nm)” value in “Absorbance spectra” is recorded as 290 nm. In the series “Absorbance spectra” (300-750 nm), the Absorbance counter-screen result was “Negative”.

Values taken from PMC5688144, “Assay interference and off-target liabilities of reported histone acetyltransferase inhibitors” (Nature Communications, 2017).
